# The supplement of paper PMC6411743
# ± gives the standard deviation of the averaged measurements. The list shows a part of the results.
# Molecular target: T1, UniProt Q5JRX3 and related entries
# T1 sequence (whole entry): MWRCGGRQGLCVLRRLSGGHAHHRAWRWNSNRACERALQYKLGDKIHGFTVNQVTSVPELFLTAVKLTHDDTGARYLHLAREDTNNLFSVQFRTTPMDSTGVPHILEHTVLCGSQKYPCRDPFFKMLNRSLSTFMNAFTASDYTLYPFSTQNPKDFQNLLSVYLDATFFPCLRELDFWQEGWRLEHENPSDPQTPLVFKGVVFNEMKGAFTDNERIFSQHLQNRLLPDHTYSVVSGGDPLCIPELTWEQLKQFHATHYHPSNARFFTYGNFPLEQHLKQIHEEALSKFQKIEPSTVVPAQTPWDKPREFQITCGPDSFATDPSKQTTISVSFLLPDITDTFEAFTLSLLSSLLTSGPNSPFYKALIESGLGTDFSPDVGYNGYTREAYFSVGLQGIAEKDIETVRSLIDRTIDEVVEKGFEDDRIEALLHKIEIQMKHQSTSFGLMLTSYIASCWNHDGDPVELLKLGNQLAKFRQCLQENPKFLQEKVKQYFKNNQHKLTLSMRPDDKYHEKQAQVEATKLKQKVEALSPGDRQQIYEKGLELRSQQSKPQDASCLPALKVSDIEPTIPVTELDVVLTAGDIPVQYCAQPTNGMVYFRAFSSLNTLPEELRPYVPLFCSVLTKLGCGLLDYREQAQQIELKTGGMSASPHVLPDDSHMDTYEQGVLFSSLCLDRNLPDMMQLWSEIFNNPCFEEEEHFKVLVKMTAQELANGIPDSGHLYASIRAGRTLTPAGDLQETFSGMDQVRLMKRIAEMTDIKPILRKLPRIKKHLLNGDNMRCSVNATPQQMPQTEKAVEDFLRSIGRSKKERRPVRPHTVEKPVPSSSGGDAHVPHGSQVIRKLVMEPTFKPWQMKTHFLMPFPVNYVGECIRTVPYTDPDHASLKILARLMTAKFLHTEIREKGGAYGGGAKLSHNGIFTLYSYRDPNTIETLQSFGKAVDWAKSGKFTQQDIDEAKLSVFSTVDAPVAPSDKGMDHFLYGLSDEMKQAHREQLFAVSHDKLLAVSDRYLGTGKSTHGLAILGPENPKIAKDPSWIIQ
# Experiment: NP40-soluble protein abundance relative to vehicle (solubility fold change) (ratio); higher = more soluble protein in presence of GTP
# Protocol: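 Solubility proteome profiling in Jurkat crude lysate. Lysate was treated with Mg-GTP (0.1-10 mM) for 10 min at room temperature and 3 min at 37 °C, then solubilised with 0.8% NP40 and benzonase, followed by ultracentrifugation. Proteins were quantified by TMT10 LC-MS/MS; the value is the NP40-soluble abundance relative to the NP40-processed vehicle, from 3 independent experiments.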
smiles,measurement,setting,value
Nc1nc2c(ncn2[C@@H]2O[C@H](COP(=O)(O)OP(=O)(O)OP(=O)(O)O)[C@@H](O)[C@H]2O)c(=O)[nH]1 [guanosine triphosphate],NP40-soluble protein abundance,concentration: 0.1mM,0.994 ± 0.019
same,NP40-soluble protein abundance,concentration: 0.5mM,1.02 ± 0.014
same,NP40-soluble protein abundance,concentration: 1mM,0.936 ± 0.027
same,NP40-soluble protein abundance,concentration: 2mM,0.951 ± 0.034
same,NP40-soluble protein abundance,concentration: 4mM,0.92 ± 0.046
same,NP40-soluble protein abundance,concentration: 6mM,0.932 ± 0.037
same,NP40-soluble protein abundance,concentration: 8mM,0.926 ± 0.019
same,NP40-soluble protein abundance,concentration: 10mM,0.894 ± 0.05
